Results reported in paper PMC12575831.
These are yes or no findings as the source states them, for the method shown. Binding seen in cells or lysates may run through a third protein. Some entries that bind do so weakly or less than the wild type.

Target: T1, LARP7 (human (endogenous in HCT116)) (UniProt Q4G0J3)
T1 sequence: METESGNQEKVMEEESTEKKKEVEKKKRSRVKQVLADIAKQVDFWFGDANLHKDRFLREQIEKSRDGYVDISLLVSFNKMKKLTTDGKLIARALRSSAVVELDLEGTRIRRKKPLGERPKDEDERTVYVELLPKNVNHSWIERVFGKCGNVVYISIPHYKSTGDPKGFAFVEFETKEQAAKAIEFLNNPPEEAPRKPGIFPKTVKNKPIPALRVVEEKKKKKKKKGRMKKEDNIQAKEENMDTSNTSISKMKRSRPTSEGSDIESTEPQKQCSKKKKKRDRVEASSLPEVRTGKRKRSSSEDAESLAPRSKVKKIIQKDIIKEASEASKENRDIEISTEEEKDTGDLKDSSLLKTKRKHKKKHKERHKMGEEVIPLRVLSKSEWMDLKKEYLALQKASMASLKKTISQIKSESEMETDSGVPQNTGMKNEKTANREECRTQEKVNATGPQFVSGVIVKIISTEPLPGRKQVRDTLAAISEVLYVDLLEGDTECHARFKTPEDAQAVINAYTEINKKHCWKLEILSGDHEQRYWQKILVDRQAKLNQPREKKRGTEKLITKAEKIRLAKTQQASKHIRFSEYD
Assay: co-IP; endogenous proteins in HCT116 lysate (150 mM NaCl, 50 mM Tris-HCl pH 7.5, 1% NP-40, protease inhibitor, SUPERase-In); antibody against LARP7, HEXIM1 or MEPCE 2 h at 4 °C, Protein A beads, western blot; cells treated with control siRNA or PUS7 siRNA (PUS7 KD) before lysis

B1: hnRNP Q (protein, UniProt O60506 1-623)
chain: MATEHVNGNGTEEPMDTTSAVIHSENFQTLLDAGLPQKVAEKLDEIYVAGLVAHSDLDERAIEALKEFNEDGALAVLQQFKDSDLSHVQNKSAFLCGVMKTYRQREKQGTKVADSSKGPDEAKIKALLERTGYTLDVTTGQRKYGGPPPDSVYSGQQPSVGTEIFVGKIPRDLFEDELVPLFEKAGPIWDLRLMMDPLTGLNRGYAFVTFCTKEAAQEAVKLYNNHEIRSGKHIGVCISVANNRLFVGSIPKSKTKEQILEEFSKVTEGLTDVILYHQPDDKKKNRGFCFLEYEDHKTAAQARRRLMSGKVKVWGNVGTVEWADPIEDPDPEVMAKVKVLFVRNLANTVTEEILEKAFSQFGKLERVKKLKDYAFIHFDERDGAVKAMEEMNGKDLEGENIEIVFAKPPDQKRKERKAQRQAAKNQMYDDYYYYGPPHMPPPTRGRGRGGRGGYGYPPDYYGYEDYYDYYGYDYHNYRGGYEDPYYGYEDFQVGARGRGGRGARGAAPSRGRGAAPPRGRAGYSQRGGPGSARGVRGARGGAQQQRGRGVRGARGGRGGNVGGKRKADGYNQPDSKRRQTNNQNWGSQPIAQQPLQGGDHSGNYGYKSENQEFYQDTFGQQWK
- binding: binds

B2: hnRNP R (protein, UniProt O43390 1-633)
chain: MANQVNGNAVQLKEEEEPMDTSSVTHTEHYKTLIEAGLPQKVAERLDEIFQTGLVAYVDLDERAIDALREFNEEGALSVLQQFKESDLSHVQNKSAFLCGVMKTYRQREKQGSKVQESTKGPDEAKIKALLERTGYTLDVTTGQRKYGGPPPDSVYSGVQPGIGTEVFVGKIPRDLYEDELVPLFEKAGPIWDLRLMMDPLSGQNRGYAFITFCGKEAAQEAVKLCDSYEIRPGKHLGVCISVANNRLFVGSIPKNKTKENILEEFSKVTEGLVDVILYHQPDDKKKNRGFCFLEYEDHKSAAQARRRLMSGKVKVWGNVVTVEWADPVEEPDPEVMAKVKVLFVRNLATTVTEEILEKSFSEFGKLERVKKLKDYAFVHFEDRGAAVKAMDEMNGKEIEGEEIEIVLAKPPDKKRKERQAARQASRSTAYEDYYYHPPPRMPPPIRGRGRGGGRGGYGYPPDYYGYEDYYDDYYGYDYHDYRGGYEDPYYGYDDGYAVRGRGGGRGGRGAPPPPRGRGAPPPRGRAGYSQRGAPLGPPRGSRGGRGGPAQQQRGRGSRGSRGNRGGNVGGKRKADGYNQPDSKRRQTNNQQNWGSQPIAQQPLQQGGDYSGNYGYNNDNQEFYQDTYGQQWK
- binding: binds
